# Results reported in US10485769B2, “Cholesteryl ester transfer protein (CETP) inhibition in the treatment of cancer” (KING ABDULLAH UNIVERSITY OF SCIENCE AND TECHNOLOGY, priority 2015, dated 2019).
# Assay: Cholesterol, HDL and LDL/VLDL in serum of MCF-7 xenograft mice
# Type: in vivo
# Conditions: 2 mg/kg PL, 5 mg/kg AP; for total cholesterol in serum (AMPLEX Red): 21 days, compared to Vehicle; for total cholesterol levels in serum (ABNOVA kit): compared to Vehicle group
Compound,total cholesterol in serum (AMPLEX Red),total cholesterol levels in serum (ABNOVA kit)
"CC(=O)Oc1cccc2c1C(=O)C=C(C)C2=O [AP, Acetyl Plumbagin]",significant increase,elevated
"CC1=CC(=O)c2c(O)cccc2C1=O [PL, 5-hydroxy-2-methyl-1,4-naphthoquinone, reference compound]",Negligible alterations,slightly lower
